{"source": "PubChem BioAssay AID504467", "about": "(National Center for Advancing Translational Sciences (NCATS), 2011)", "note": "Among all 330,000 compounds or so, about 7,700 (2.3%) were called active. Inconclusive results, whose numbers are uncertain, are shown with a selection of clear calls. Calls come from the whole dose curve; as a rule, active = well fitted inhibition curve with a large enough effect; inconclusive = small, poorly fitted or top-dose-only effect, or effect the other way; inactive = flat fitted curve, though single readings scatter. A potency beside an inconclusive call is a rough fit, not a confirmed value. Potency is the fitted concentration of half-maximal effect.", "data": [{"assay": "qHTS screen for small molecules that inhibit ELG1-dependent DNA repair in human embryonic kidney (HEK293T) cells expressing luciferase-tagged ELG1; note: nearly all actives have a fitted effect of over 55% in size", "conditions": "HEK293T ELG1-luciferase reporter, luminescence, 16 h, DNA damage induced by 5-fluorouridine; series mostly up to 46.1 µM", "how_it_was_run": "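In this reporter screen, reduction of luminescence relative to DMSO vehicle indicated activity. Compounds and 5-fluorouridine were added together to 2,000 cells per well, incubated for 16 hr at 37 °C, then developed with ONE-Glo.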", "values": [{"smiles": "CN(C(=O)CSc1nnnn1C)C1(C#N)CCCCC1", "Potency": "inactive"}, {"smiles": "O=S(=O)(c1ccccc1Br)N1CCN(c2ncccn2)CC1", "Potency": "inactive"}, {"smiles": "CC(C)(C)c1cnnn1-c1ccc(NC(=O)c2ccc3c(c2)OCO3)cc1", "Potency": "inconclusive: 0.146 µM [activator, full curve, poor fit]"}, {"smiles": "COc1cc(OC)c2c(=O)c(OC)c(-c3ccc(OC)c(OC)c3)oc2c1", "Potency": "inconclusive: 7.3 µM [inhibitor, partial curve]"}, {"smiles": "COc1ccccc1N1CCN(Cc2cc(Br)c(O)c3ncccc23)CC1", "Potency": "inconclusive: 2.06 µM [inhibitor, full curve]"}, {"smiles": "CC(C)c1cc(N=NC(N)=O)cc(C(C)C)c1O", "Potency": "inactive"}, {"smiles": "Cc1nnc(C)c2c(C)n(-c3ccccc3)c(C)c12", "Potency": "inconclusive: 14.6 µM [inhibitor, partial curve, poor fit]"}, {"smiles": "CSc1ccc(/C=C2/C(=N)N3N=C(CC(=O)N4CCCC4)SC3=NC2=O)cc1", "Potency": "inactive"}, {"smiles": "CCNC(=O)CSc1nc(-c2ccc(F)cc2)cs1", "Potency": "inconclusive: 6.51 µM [activator, single point]"}, {"smiles": "CC1CCN(C(=O)c2ccccc2NC(=O)Nc2ccccc2)CC1", "Potency": "inactive"}, {"smiles": "CC(C)(C)C(=O)N1CCN(c2ccc([N+](=O)[O-])c(NCc3cccnc3)c2)CC1", "Potency": "inconclusive: 29.1 µM [inhibitor, single point]"}, {"smiles": "COC(=O)c1ccc(N=NNc2ccc(C(=O)OC)cc2)cc1", "Potency": "inconclusive: 1.16 µM [activator, full curve]"}, {"smiles": "COc1ccc(CCNC(=S)NC(=O)c2cc(OC)c(OC)c(OC)c2)cc1OC", "Potency": "active: 1.83 µM"}, {"smiles": "Cc1ccc(S(=O)(=O)N2CCC(C(=O)Nc3ccc(S(=O)(=O)N4CCCC4)cc3)CC2)cc1C", "Potency": "inconclusive: 14.6 µM [inhibitor, partial curve, poor fit]"}, {"smiles": "CC(=O)c1cccc(NC(=O)N2CCCC2C(=O)Nc2cccc(C)c2)c1", "note": "(configuration not stated)", "Potency": "inactive"}, {"smiles": "CC(C)Oc1ccc(/C=C(/NC(=O)c2ccccc2)C(=O)NCCC(=O)O)cc1", "Potency": "inconclusive: 16.4 µM [inhibitor, single point]"}, {"smiles": "Cc1ccc(C(=O)O/N=C(\\N)Cc2ccc([N+](=O)[O-])cc2)c(Cl)c1", "Potency": "inconclusive: 16.4 µM [activator, partial curve, poor fit]"}, {"smiles": "COc1ccc(-c2nn(-c3ccccc3)cc2/C=N/NC(=O)c2ccc3c(c2)OCO3)cc1", "Potency": "inconclusive: 13 µM [inhibitor, partial curve, poor fit]"}, {"smiles": "COc1ccc(CCN2CNc3c(c(=O)n(C)c(=O)n3C)C2)cc1", "Potency": "inactive"}, {"smiles": "COc1ccc(C(=O)N2C(=S)NC(=O)/C2=C\\c2ccc(C)cc2)cc1", "Potency": "inactive"}, {"smiles": "Cc1noc(C)c1NC(=O)N(C)C[C@H]1Oc2ccc(NC(=O)Nc3ccc(C(F)(F)F)cc3)cc2C(=O)N([C@H](C)CO)C[C@@H]1C", "Potency": "inconclusive: 16.4 µM [activator, partial curve, poor fit]"}, {"smiles": "CCn1c(O)c(/C=C2\\C=NN=C2c2ccc(C)cc2)sc1=S", "Potency": "inconclusive: 4.11 µM [inhibitor, partial curve, poor fit]"}, {"smiles": "O=C(Nc1ccccc1)Nc1cccn(Cc2c(F)cccc2Cl)c1=O", "Potency": "inactive"}, {"smiles": "COc1ccc(C(CNC(=O)c2cccc(S(=O)(=O)Nc3ccccc3OC)c2)N2CCCC2)cc1", "note": "(configuration not stated)", "Potency": "inactive"}, {"smiles": "COc1ccccc1-c1noc(CCCC(=O)Nc2ccc(C(N)=O)cc2)n1", "Potency": "inconclusive: 29.1 µM [activator, single point]"}, {"smiles": "C/C(=N\\NC(=O)c1ccccc1Br)c1ccc(N2CCOCC2)cc1", "Potency": "inconclusive: 16.4 µM [activator, partial curve, poor fit]"}, {"smiles": "CN(C)c1nc(NCc2ccccc2)nc(N/N=C/c2ccc(Cl)cc2Cl)n1", "Potency": "inconclusive: 6.51 µM [inhibitor, partial curve]"}, {"smiles": "COc1cccc(-c2nc3ccc([N+](=O)[O-])cc3o2)c1", "Potency": "inconclusive: 3.66 µM [activator, partial curve]"}, {"smiles": "COC(=O)c1ccc(CON2C(=O)c3ccccc3C2=O)cc1", "Potency": "inconclusive: 18.4 µM [activator, single point]"}, {"smiles": "CCOC(=O)C1CCN(c2cc3c(cc2NC(=O)c2cc(OC)ccc2Br)n(C)c(=O)n3C)CC1", "Potency": "inconclusive: 4.61 µM [inhibitor, full curve]"}, {"smiles": "COCCN(C(=S)Nc1ccccc1OC)C(C)c1cccs1", "note": "(configuration not stated)", "Potency": "inactive"}, {"smiles": "CCCc1nc2ccccc2c2nc(N)nn12", "Potency": "inconclusive: 25.9 µM [activator, partial curve, poor fit]"}, {"smiles": "COc1ccc(NC(=O)Nc2cc(C)cc(C)c2)cn1", "Potency": "inactive"}, {"smiles": "CCC(C)Sc1nc2ccccc2n1CC(=O)O", "note": "(configuration not stated)", "Potency": "inactive"}, {"smiles": "COc1ccc(C(=O)COC(=O)c2nn(C)cc2Cl)cc1", "Potency": "inconclusive: 23.1 µM [activator, partial curve]"}, {"smiles": "O=C(COc1ccc(Cl)cc1)Nc1cccc(-c2ccc(N3CCOCC3)nn2)c1", "Potency": "inconclusive: 23.1 µM [inhibitor, single point]"}, {"smiles": "Cc1ccc(NC(=O)Cn2c(=O)n(CCCCC(=O)NCc3ccco3)c(=O)c3ccccc32)cc1", "Potency": "inconclusive: 29.1 µM [inhibitor, single point]"}, {"smiles": "CCCCn1c(N)c(N(Cc2ccccc2OC)C(=O)CC2OC(=O)c3ccccc32)c(=O)[nH]c1=O", "note": "(configuration not stated)", "Potency": "inactive"}, {"smiles": "COc1cc([N+](=O)[O-])ccc1NC(=O)COC(=O)CCOc1ccc(C)cc1", "Potency": "inconclusive: 20.6 µM [inhibitor, single point]"}, {"smiles": "COCC1CCCCN1C(=O)c1ccc(OC2CCN(CCc3ccccc3)CC2)cc1", "note": "(configuration not stated)", "Potency": "inconclusive: 16.4 µM [activator, partial curve]"}, {"smiles": "O=C(c1cc(-c2ccc(Cl)cc2)on1)N1CCCCCC1", "Potency": "inconclusive: 6.51 µM [activator, partial curve]"}, {"smiles": "O=C(c1csc2c1CCCC2)N1CCN(c2ccccc2)CC1", "Potency": "inconclusive: 32.6 µM [inhibitor, single point]"}, {"smiles": "CC(C)(C)N(Cc1cc2ccccc2[nH]c1=O)C(=O)c1cccc([N+](=O)[O-])c1", "Potency": "inactive"}, {"smiles": "O=C(CN1C(=O)NC2(CCCC2)C1=O)NCc1ccccc1", "Potency": "inactive"}, {"smiles": "COC(=O)c1ccc(/C=N\\NC(=O)c2c(C)nc3ccc(Cl)cn23)cc1", "Potency": "inconclusive: 2.91 µM [inhibitor, partial curve, poor fit]"}, {"smiles": "Cc1ccc(CNC(=O)c2ccc(Br)o2)cc1", "Potency": "inconclusive: 29.1 µM [activator, single point]"}, {"smiles": "O=C(N/C=N/O)C1=NOC(CNc2ncc(C(F)(F)F)cc2Cl)C1", "note": "(configuration not stated)", "Potency": "inconclusive: 20.6 µM [activator, partial curve, poor fit]"}, {"smiles": "CC(=O)Nc1ccc(NC(=O)CN(C)S(=O)(=O)c2ccc3c(c2)CCC(=O)N3)cc1", "Potency": "inactive"}, {"smiles": "COc1ccc(/C=N/Nc2nnc(C)n2N)cc1OC(C)=O", "Potency": "inactive"}, {"smiles": "c1cc2c(cc1-c1cnc3n1CCC3)OCCO2", "Potency": "inconclusive: 29.1 µM [inhibitor, single point]"}, {"smiles": "CC(C)C[C@H](NC(=O)c1nc[nH]c1C(=O)N[C@@H](CC(C)C)C(=O)OC(C)(C)C)C(=O)OC(C)(C)C", "Potency": "inconclusive: 32.6 µM [inhibitor, single point]"}, {"smiles": "S=C(NNC(=S)Nc1ccccc1)Nc1ccccc1", "Potency": "inconclusive: 16.4 µM [activator, partial curve]"}, {"smiles": "COc1ccccc1COC(=O)Nc1c(C)nn(C)c1Cl", "Potency": "inactive"}, {"smiles": "COCCN(C(=O)CCC(=O)Nc1ccccn1)C(C(=O)NC(C)(C)C)c1ccc(OC)cc1", "note": "(configuration not stated)", "Potency": "inactive"}, {"smiles": "CCOCCn1ccc2c(OCC(=O)NCc3ccccc3)cccc2c1=O", "Potency": "inactive"}, {"smiles": "CC(C)c1ccc(C2c3[nH]c4ccccc4c3C[C@H]3C(=O)N(c4ccccc4C(=O)N4CCC[C@H]4C(=O)O)C(=O)N23)cc1", "note": "(some centres not stated)", "Potency": "inconclusive: 13 µM [activator, partial curve, poor fit]"}, {"smiles": "CSc1ccc(CCNC(=O)c2nn(C)c3c2CS(=O)(=O)c2ccccc2-3)cc1", "Potency": "active: 25.9 µM"}, {"smiles": "O=C(Nc1cccc(Cl)c1)c1nc[nH]c1C(=O)NCCCNC(=O)c1[nH]cnc1C(=O)Nc1cccc(Cl)c1", "Potency": "inconclusive: 5.17 µM [inhibitor, partial curve, poor fit]"}, {"smiles": "CC(/C=N/NC(=O)c1cc(-c2cccs2)[nH]n1)=C\\c1ccccc1", "Potency": "inconclusive: 29.1 µM [inhibitor, single point]"}, {"smiles": "CC(C)c1ccc(N(C(=O)c2cc3ccccc3oc2=O)C2C=CS(=O)(=O)C2)cc1", "note": "(configuration not stated)", "Potency": "inconclusive: 11.6 µM [inhibitor, partial curve, poor fit]"}, {"smiles": "CCOC(=O)N1CCC(NC(=O)c2ccc3c(c2)N(C)C(=O)/C(=C/c2cccc(OC)c2)S3)CC1", "Potency": "inconclusive: 4.61 µM [inhibitor, partial curve, poor fit]"}, {"smiles": "COc1ccc(-c2ccc3c(c2)S(=O)(=O)c2cccc(C(=O)NCc4cc(C)oc4C(F)(F)F)c2C3=O)cc1OC", "Potency": "inconclusive: 29.1 µM [activator, single point]"}, {"smiles": "CCOc1cc(/C=C2/COc3ccccc3C2=O)ccc1OCC(=O)N(C)C", "Potency": "inconclusive: 0.291 µM [activator, partial curve, poor fit]"}, {"smiles": "COc1cccc2sc(N3CCN(C(=O)c4cccs4)CC3)nc12", "Potency": "inconclusive: 4.61 µM [inhibitor, single point]"}, {"smiles": "CCOC(=O)Cc1csc(NC(=O)c2ccc(Cl)s2)n1", "Potency": "inactive"}, {"smiles": "O=C(CCN1C(=O)c2ccccc2C1=O)N1CCC(c2ccccc2)C1", "note": "(configuration not stated)", "Potency": "inconclusive: 20.6 µM [activator, partial curve, poor fit]"}, {"smiles": "COc1cccc(C(=O)NC(=S)N2c3ccccc3CC2C)c1OC", "note": "(configuration not stated)", "Potency": "inactive"}]}]}
